# The other results are listed elsewhere or left out. Shown are side measurements of this screen, not its main read-out; they come without a call. Most of these compounds were active or inconclusive in the main read-out, so they are no random draw. The note in brackets gives the kind of curve behind each potency; many fits are weak.
# Experiment: qHTS Assay to Find Inhibitors of Chronic Active B-Cell Receptor Signaling
# Details: ABC-DLBCL IkBa-CBG/CBR reporter, luminescence ratio (green luciferase fused to IkBa over red control in TMD8 lymphoma cells), 4 h
# In short: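 TMD8 human ABC-DLBCL cells with doxycycline-inducible IκBα–green luciferase fusion and unfused red luciferase, in 0.5% FBS medium; compounds up to 46 uM, 4 h at 37C. Green/red luminescence ratio, filter-overlap corrected, fitted to concentration-response curves.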
# [1] = measured here: CBR red luminescence, cell number
# [2] = measured here: IkBa-CBG green luminescence
SMILES,AC50 [1],AC50 [2]
O=C(CCc1nc(-c2ccccc2F)no1)NCCN1CCc2ccccc2C1,"10 µM [rising, partial curve, poor fit]",–
Cc1[nH]n(-c2ccccc2)c(=O)c1/C=N/NC(=O)C(C)C,–,"35.5 µM [falling, single point]"
Cc1ccc(NC(=O)c2ccc3c(c2)OCO3)cc1S(=O)(=O)N1CCOCC1,"18.4 µM [falling, single point]",–
CCCSc1nc2c(cnn2-c2ccccc2)c(=O)n1N,"11.2 µM [falling, single point]",–
COc1cc(SC)ccc1C(=O)Nc1ccc(Cl)cn1,"3.16 µM [falling, full curve]",–
OCCNCc1ccc(OCc2ccc(Cl)cc2Cl)cc1,"35.5 µM [falling, partial curve, poor fit]",–
Nc1cc(C(=O)N2CCCC2)cc(C(=O)N2CCCC2)c1,"6.51 µM [falling, partial curve, poor fit]","6.51 µM [rising, partial curve, poor fit]"
COCCN(CC(=O)Nc1cccc(C)c1C)C(=O)c1ccc2ccccc2n1,"29.1 µM [rising, single point]",–
O=C(NNC(=S)NC1CCCCC1)c1sc2ccccc2c1Cl,"0.326 µM [falling, full curve, poor fit]",–
COc1ccc(C(=O)/C(C)=N/O)cc1OC,"1.46 µM [rising, partial curve, poor fit]",–
COc1cc(OC)cc(-c2cc3ccccc3c(=O)o2)c1,"2.59 µM [rising, single point]",–
Cc1ccc(Nc2nc(C(=O)NCc3ccco3)cs2)cc1,"11.2 µM [falling, partial curve, poor fit]",–
Cc1cccc(-c2noc(CCC(=O)NCc3ccccc3)n2)c1,"10 µM [rising, partial curve, poor fit]",–
Cn1c(=O)c2c(nc(CN3CCCCC3)n2Cc2c(F)cccc2Cl)n(C)c1=O,"25.1 µM [rising, single point]",–
Cc1cccc(Cn2c(SCCO)nc3c2c(=O)n(C)c(=O)n3C)c1,"2.24 µM [falling, partial curve, poor fit]",–
CCOC(=O)C1=C(C)NC(=S)NC1c1ccc(-c2ccc(Cl)cc2)o1 (stereo not drawn),"32.6 µM [falling, partial curve, poor fit]",–
CC1=NN(c2cccc(C(=O)O)c2)C(=O)/C1=C\C=C\c1ccco1,"29.1 µM [falling, single point]",–
O=C(O)C1C2C=CC(C3CC23)C1C(=O)O (stereo not drawn),"20.6 µM [rising, partial curve, poor fit]",–
O=C(NCc1ccccc1Cl)c1cccc(C(F)(F)F)c1,"0.82 µM [rising, partial curve, poor fit]",–
COc1c(F)c(F)c(C(=O)Nc2ccc(NC(=O)c3ccco3)cc2)c(F)c1F,"1.64 µM [rising, partial curve, poor fit]",–
CCOC(=O)CCC(NC(=O)CCCCCCCCC(=O)NC(CCC(=O)OCC)C(=O)OCC)C(=O)OCC (stereo not drawn),"18.4 µM [rising, partial curve]",–

# Three entries drawn at random from those above:
SMILES,AC50 [1],AC50 [2]
Nc1cc(C(=O)N2CCCC2)cc(C(=O)N2CCCC2)c1,"6.51 µM [falling, partial curve, poor fit]","6.51 µM [rising, partial curve, poor fit]"
COc1ccc(C(=O)/C(C)=N/O)cc1OC,"1.46 µM [rising, partial curve, poor fit]",–
Cc1cccc(-c2noc(CCC(=O)NCc3ccccc3)n2)c1,"10 µM [rising, partial curve, poor fit]",–

# Next part

SMILES,AC50 [1],AC50 [2]
CCN(CC)c1nc2ccccc2n(Cc2cccc(OC)c2)c1=O,"35.5 µM [rising, single point]",–
N/C(=N\OC(=O)CCC1CCCC1)c1ccccn1,"2.59 µM [rising, partial curve]",–
Cc1cccc(C(=O)N/N=C/c2ccncc2)c1,"7.94 µM [falling, partial curve]",–
CN(Cc1ccccc1)CC(O)COc1ccc(CNCc2cc3ccccc3s2)cc1 (stereo not drawn),"35.5 µM [falling, single point]",–
C=C(C)CN(CC)c1nc(N)c2c(N)nc3c(c2c1C#N)CC(=O)N3C12CC3CC(CC(C3)C1)C2,"6.51 µM [falling, single point]",–
Cc1ccc(NC(=O)COC(=O)c2ccc(-n3cccn3)cc2)cc1C,"0.13 µM [falling, full curve, poor fit]",–
COc1ccc(/C=C2\SC(=S)N(CCCC(=O)N3CCN(C)CC3)C2=O)cc1,"3.98 µM [falling, full curve, poor fit]",–
O=C(Nc1ccccc1)c1ccc(-c2ccc(F)cc2)s1,"2.24 µM [falling, full curve]",–
CCOc1ccccc1NC(=O)CC1Nc2ccccc2NC1=O (stereo not drawn),"10.3 µM [falling, partial curve]",–
CCNC(=O)c1ccccc1-c1nc(-c2ccccc2OC)no1,"0.891 µM [rising, full curve, poor fit]",–
CCOC(=O)/C(=N\Nc1ccc(Br)cc1)N1CC(C)OC(C)C1 (stereo not drawn),"12.6 µM [rising, single point]",–
O=c1[nH]c(Nc2ccccc2)cc2ccccc12,"1.12 µM [falling, full curve, poor fit]",–
O=C(CSC1=NCCS1)Nc1ccccc1F,"12.6 µM [falling, partial curve, poor fit]",–
Cc1ccc(NC(=O)C2CCCC2)cc1S(=O)(=O)N1CCOCC1,"25.9 µM [rising, partial curve, poor fit]",–
COc1cc(CNCCO)cc(Br)c1OCc1ccccc1Cl,"31.6 µM [falling, single point]",–
COc1ccccc1N1CCN(C(=S)Nc2ccc3nc(N4CCOCC4)cc(C)c3c2)CC1,"35.5 µM [falling, single point]",–
O=c1c2cc(N3CCOCC3)ccc2[nH]c(=S)n1CCCN1CCN(c2ccccc2F)CC1,"29.1 µM [rising, single point]",–
CC(=O)NCC(=O)NC(C(=O)Nc1ccc2c(c1)OCCO2)c1ccccc1 (stereo not drawn),"29.1 µM [rising, single point]",–
CSc1cc(C)n(-c2ccccc2)c(=S)c1C(C)=O,"29.1 µM [rising, single point]",–
Cc1cc(/C=N/Nc2ccc([N+](=O)[O-])cn2)c(C)n1-c1ccccc1,"6.51 µM [rising, full curve, poor fit]",–
CC(C)(C)n1nc(-c2ccc(F)cc2)c2c(N)ncnc21,"4.11 µM [falling, full curve, poor fit]",–

# Reference: PubChem BioAssay AID493014 (National Center for Advancing Translational Sciences (NCATS), 2011)
